Publication PMC6338668
These are yes or no findings as the source states them, for the method shown. For some of these results: In cells and extracts the contact can be indirect. Some binding calls cover weakened binding; strength is not graded here. Blank lines part the entries; values can stand above or below the substance they belong to.

Amino acid sequences for entries named in this document (tags omitted). A change or cut given only in a name is not applied to a line headed by its entry. Chains listed by the source or under a name are the forms on record and can include a tag or linker. Residues count along the entry.
UniProt Q99J09: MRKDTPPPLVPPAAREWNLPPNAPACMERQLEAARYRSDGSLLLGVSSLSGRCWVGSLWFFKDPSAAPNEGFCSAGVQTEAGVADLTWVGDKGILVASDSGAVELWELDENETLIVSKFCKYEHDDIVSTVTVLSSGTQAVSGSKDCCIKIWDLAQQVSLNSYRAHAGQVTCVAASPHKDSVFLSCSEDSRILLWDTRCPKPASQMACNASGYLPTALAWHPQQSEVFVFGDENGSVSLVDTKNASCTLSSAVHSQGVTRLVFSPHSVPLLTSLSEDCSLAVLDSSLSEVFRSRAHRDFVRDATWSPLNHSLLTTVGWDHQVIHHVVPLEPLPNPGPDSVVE
UniProt P08151: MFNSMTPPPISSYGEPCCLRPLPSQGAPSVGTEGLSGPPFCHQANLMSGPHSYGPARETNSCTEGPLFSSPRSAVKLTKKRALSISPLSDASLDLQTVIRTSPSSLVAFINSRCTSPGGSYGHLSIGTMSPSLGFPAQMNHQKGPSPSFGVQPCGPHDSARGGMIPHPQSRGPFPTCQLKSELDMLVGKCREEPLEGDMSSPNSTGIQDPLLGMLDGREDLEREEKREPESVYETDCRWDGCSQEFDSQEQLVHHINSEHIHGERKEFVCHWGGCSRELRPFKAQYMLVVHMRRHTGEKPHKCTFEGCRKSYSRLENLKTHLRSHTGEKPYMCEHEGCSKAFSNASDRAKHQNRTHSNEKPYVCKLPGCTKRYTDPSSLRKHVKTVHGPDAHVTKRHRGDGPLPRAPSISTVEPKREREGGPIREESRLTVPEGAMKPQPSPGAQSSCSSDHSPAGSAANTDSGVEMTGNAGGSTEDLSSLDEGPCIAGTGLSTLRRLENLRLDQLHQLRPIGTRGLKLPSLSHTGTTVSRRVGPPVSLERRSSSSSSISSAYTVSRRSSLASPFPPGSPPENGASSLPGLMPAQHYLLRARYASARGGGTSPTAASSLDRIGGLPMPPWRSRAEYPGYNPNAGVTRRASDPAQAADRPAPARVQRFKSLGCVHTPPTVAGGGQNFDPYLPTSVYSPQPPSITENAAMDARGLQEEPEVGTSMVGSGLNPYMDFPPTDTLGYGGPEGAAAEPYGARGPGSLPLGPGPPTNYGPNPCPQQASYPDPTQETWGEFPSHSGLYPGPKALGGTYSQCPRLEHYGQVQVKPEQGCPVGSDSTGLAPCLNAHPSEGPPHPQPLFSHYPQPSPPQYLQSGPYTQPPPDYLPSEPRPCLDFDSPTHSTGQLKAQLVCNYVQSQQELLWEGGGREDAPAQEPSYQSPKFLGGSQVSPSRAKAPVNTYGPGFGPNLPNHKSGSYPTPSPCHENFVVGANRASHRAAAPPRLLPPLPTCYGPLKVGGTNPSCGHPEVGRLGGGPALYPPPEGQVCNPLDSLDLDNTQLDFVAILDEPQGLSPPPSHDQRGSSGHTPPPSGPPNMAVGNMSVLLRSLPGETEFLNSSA
GST-GLI1 N-terminal region (1–411 aa): residues 1-411 of P08151
HA-GLI1 with arginine 990 substituted (arginine to lysine) (P08151, form named): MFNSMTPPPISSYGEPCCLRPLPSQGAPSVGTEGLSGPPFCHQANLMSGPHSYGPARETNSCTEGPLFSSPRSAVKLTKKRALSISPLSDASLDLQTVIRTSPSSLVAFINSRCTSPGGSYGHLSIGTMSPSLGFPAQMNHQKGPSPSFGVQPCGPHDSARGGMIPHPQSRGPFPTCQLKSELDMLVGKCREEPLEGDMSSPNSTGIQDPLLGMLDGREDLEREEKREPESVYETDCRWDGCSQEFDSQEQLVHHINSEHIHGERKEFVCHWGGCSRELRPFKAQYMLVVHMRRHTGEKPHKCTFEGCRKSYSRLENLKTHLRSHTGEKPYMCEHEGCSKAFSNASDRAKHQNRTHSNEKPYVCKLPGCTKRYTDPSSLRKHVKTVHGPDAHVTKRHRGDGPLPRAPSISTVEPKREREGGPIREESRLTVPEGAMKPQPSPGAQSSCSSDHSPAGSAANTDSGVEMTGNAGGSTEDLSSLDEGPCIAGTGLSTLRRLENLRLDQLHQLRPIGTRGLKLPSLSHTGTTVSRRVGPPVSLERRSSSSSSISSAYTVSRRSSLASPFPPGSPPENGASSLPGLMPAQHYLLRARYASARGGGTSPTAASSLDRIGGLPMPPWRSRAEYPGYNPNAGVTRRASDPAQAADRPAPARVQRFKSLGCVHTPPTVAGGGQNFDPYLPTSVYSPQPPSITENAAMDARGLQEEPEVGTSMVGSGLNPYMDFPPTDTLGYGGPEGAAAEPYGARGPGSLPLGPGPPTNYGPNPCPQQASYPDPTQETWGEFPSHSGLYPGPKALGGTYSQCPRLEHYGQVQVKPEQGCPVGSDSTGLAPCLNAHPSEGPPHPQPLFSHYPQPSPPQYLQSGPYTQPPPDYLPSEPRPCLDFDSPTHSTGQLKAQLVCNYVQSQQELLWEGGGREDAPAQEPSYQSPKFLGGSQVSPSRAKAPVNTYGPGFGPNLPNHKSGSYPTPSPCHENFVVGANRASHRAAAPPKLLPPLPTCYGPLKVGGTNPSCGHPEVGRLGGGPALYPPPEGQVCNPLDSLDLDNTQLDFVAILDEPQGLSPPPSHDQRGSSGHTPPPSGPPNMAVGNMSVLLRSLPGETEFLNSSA
HA-GLI1 with arginine 1018 substituted (arginine to lysine) (P08151, form named): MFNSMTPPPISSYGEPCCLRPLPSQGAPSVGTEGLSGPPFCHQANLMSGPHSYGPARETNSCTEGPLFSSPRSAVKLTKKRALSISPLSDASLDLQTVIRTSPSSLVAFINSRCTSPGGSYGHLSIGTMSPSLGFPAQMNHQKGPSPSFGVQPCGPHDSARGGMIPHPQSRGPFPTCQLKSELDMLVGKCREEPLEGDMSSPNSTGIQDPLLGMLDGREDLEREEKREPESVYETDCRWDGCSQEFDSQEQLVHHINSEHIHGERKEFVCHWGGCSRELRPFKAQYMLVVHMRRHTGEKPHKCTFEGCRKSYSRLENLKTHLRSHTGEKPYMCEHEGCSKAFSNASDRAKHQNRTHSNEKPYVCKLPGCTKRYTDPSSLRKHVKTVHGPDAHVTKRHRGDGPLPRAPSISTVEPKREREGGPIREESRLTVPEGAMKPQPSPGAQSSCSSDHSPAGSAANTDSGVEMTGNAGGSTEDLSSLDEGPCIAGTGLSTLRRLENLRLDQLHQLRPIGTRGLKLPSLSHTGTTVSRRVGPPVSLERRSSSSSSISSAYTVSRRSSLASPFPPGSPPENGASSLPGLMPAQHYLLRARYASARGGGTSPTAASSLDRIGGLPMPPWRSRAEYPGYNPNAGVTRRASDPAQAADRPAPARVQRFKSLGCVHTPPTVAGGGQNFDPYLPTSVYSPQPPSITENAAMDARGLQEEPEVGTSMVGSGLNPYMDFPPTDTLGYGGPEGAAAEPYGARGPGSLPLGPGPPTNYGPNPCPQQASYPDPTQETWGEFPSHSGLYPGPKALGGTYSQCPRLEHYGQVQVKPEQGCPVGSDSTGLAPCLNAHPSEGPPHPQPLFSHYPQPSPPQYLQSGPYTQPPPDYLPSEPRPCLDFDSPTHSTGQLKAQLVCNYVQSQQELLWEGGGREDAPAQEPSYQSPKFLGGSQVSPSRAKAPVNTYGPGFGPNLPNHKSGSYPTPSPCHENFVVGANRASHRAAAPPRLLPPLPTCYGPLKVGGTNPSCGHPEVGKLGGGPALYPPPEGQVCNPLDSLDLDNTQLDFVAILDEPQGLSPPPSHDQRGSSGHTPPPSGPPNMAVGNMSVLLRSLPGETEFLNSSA
HA-GLI1 with arginines 990 and 1018 both substituted (arginine to lysine) (P08151, form named): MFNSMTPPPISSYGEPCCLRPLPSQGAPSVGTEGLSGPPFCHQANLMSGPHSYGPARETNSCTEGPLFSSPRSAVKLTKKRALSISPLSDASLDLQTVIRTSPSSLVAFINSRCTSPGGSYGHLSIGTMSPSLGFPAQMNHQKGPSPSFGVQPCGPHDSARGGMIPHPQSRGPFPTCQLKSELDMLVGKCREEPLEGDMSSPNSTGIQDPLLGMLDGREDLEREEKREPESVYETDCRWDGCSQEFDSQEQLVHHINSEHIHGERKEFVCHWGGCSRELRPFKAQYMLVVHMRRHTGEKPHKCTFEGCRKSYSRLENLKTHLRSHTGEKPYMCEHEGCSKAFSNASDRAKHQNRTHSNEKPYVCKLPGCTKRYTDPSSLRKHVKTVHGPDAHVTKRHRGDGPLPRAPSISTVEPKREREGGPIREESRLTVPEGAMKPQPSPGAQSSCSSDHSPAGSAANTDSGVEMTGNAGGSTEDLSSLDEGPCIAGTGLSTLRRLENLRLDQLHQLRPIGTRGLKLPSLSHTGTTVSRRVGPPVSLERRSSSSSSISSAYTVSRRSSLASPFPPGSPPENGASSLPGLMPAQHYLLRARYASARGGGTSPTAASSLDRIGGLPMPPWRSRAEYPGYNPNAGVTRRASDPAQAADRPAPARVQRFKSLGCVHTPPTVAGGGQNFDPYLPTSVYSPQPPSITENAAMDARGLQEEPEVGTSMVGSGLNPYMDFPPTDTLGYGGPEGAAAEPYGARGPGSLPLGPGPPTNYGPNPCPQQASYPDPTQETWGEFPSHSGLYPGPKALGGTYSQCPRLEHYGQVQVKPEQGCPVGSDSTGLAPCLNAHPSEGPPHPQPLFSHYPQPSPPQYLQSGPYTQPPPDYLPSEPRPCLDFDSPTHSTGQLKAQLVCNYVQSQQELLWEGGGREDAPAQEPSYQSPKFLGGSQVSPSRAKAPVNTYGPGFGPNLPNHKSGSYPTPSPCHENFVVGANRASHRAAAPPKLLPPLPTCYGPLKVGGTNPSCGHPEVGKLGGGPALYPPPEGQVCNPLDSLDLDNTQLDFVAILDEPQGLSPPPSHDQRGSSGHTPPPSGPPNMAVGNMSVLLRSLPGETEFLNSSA
UniProt Q8C863: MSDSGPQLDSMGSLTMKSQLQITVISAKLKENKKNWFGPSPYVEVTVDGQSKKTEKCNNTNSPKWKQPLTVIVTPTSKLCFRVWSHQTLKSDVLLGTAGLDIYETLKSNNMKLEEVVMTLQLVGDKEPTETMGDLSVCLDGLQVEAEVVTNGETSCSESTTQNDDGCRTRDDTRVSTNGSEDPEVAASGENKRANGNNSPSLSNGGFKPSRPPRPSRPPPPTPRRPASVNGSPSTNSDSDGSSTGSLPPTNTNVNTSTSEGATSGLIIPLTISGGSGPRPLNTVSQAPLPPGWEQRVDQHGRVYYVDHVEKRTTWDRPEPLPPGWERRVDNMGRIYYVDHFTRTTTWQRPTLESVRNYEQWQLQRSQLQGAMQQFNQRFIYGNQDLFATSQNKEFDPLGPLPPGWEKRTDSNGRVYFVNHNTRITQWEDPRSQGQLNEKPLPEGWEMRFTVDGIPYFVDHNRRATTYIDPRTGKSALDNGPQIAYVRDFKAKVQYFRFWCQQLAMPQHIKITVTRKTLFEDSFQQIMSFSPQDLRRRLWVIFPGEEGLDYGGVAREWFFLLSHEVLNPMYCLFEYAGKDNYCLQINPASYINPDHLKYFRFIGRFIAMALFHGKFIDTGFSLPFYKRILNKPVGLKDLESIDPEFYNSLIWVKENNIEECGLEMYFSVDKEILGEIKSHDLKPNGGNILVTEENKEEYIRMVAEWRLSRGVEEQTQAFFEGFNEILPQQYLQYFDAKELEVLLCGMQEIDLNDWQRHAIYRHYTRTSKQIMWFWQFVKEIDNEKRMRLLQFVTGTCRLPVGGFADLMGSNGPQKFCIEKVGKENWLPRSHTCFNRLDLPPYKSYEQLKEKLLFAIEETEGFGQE
UniProt Q9BQA1: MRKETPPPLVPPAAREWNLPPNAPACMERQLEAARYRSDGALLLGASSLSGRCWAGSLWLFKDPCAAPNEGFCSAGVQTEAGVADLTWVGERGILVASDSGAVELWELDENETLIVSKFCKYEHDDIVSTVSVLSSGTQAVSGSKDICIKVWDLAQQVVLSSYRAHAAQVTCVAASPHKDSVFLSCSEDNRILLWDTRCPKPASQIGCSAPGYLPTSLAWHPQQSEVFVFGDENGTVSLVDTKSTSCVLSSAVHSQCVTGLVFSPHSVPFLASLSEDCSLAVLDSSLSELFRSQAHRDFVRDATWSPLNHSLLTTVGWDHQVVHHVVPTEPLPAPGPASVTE

What was measured:
[1] = target: MEP50, endogenous in C3H10T1/2 cells (mouse (endogenous in C3H10T1/2)) (UniProt Q99J09); assay: co-IP; endogenous proteins of C3H10T1/2 cells treated with SAG for 36 h; immunoprecipitation with anti-PRMT5 (D5P2T), anti-MEP50 (EPR10708 [B]) or anti-GLI1 (V812), immunoblot; also in stable MEP50 knockdown cells (siMEP50-m2), SAG 48 h and 50 μM MG132 4 h
[2] = target: GLI1 in stably PRMT5-knockdown or MEP50-knockdown C3H10T1/2 cells (Fig. 5a) (UniProt P08151); assay: co-IP; stably PRMT5-knockdown or MEP50-knockdown C3H10T1/2 cells (siPRMT5-m2, siMEP50-m2) and control; 50 μM MG132 for 4 h before harvesting; GLI1 with endogenous ITCH or NUMB
[3] = target: HA-GLI1 with arginine 990 substituted (arginine to lysine) (UniProt P08151); assay: co-IP; C3H10T1/2 cells transfected with HA-GLI1 mutants, 48 h, then 50 μM MG132 for 4 h; immunoprecipitation with anti-HA, immunoblot for endogenous ITCH and NUMB
[4] = target: HA-GLI1 with arginine 1018 substituted (arginine to lysine) (UniProt P08151); assay: as above
[5] = target: HA-GLI1 with arginines 990 and 1018 both substituted (arginine to lysine) (UniProt P08151); assay: as above
[6] = target: FLAG-tagged GLI1 expressed in HEK293T cells (UniProt P08151); assay: co-IP; HEK293T cells transfected with Myc-MEP50 or its deletion mutants and FLAG-GLI1 for 24 h; immunoprecipitation with anti-FLAG (legend; the text says anti-Myc), immunoblot with anti-FLAG and anti-Myc
[7] = target: GST-GLI1 N-terminal region (1–411 aa) (UniProt P08151); assay: pull-down; GST-GLI1 deletion mutants coupled to glutathione sepharose incubated with Myc-MEP50 immunoprecipitated (purified) from HEK293T cells; immunoblot with anti-Myc; both purified

binding [1]: binds
Substance: GLI1, endogenous in C3H10T1/2 cells (from UniProt P47806 1-1111)

binding [2]: binds
binding [3]: binds
binding [4]: binds
binding [5]: binds
Substance: ITCH/NUMB ubiquitin ligase complex, endogenous in C3H10T1/2 cells (from UniProt Q8C863 1-864; Q9QZS3 1-653)

binding [6]: binds
binding [7]: binds
Substance: Myc-tagged MEP50 (from UniProt Q9BQA1 1-342)
